PubChem BioAssay AID2685 (National Center for Advancing Translational Sciences (NCATS), 2010)
The other results are listed elsewhere or left out. The main result of the screen is listed elsewhere. These columns were measured beside it and carry no call. Most of these compounds were active or inconclusive in the main read-out, so they are no random draw. The note in brackets gives the kind of curve behind each potency; many fits are weak.

Assay: qHTS Assay for Lipid Storage Modulators in Drosophila S3 Cells;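 as to cell number change: cells counted by Cell Tracker Red CMTPX staining in the red channel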
Settings: BODIPY lipid droplet fluorescence, 18-24 h; for cell number change: measured here: cell count max response, cells fed with added oleic acid
Summary of the method: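 Drosophila S3 cells got compounds at several concentrations plus oleic acid (400 uM solution). Laser-scanning cytometry with 488 nm excitation read lipid droplets at 500-530 nm and cells at 575-640 nm. Percent activity was relative to 20 uM Triacsin C.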

[1] = measured here: cell number channel AC50, cells fed with added oleic acid
[2] = measured here: lipid fluorescence (Fed channel) AC50, cells fed with added oleic acid

## Cn1c(=O)c2c(n(Cc3ccccc3)c1=O)NC(=O)C2CC(=O)NCc1cccc(Cl)c1 (centres undefined)
[1]
  AC50: 0.731 µM [falling, single point]

## Cc1ccc(C(=O)Nc2ccc(S(=O)(=O)NC3=NCCCCC3)cc2)c(C)c1
  cell number change: 14.5%

## CCOC(=O)c1ccc(CNC(=O)Cn2nnc(-c3ccccc3)n2)o1
  cell number change: 81.8%
[1]
  AC50: 1.84 µM [rising, full curve]
[2]
  AC50: 6.51 µM [rising, partial curve, poor fit]

## CCN(CC(=O)Nc1ccc2c(c1)OCO2)CC(=O)Nc1ccccc1C(F)(F)F
  cell number change: 1.65%
[2]
  AC50: 29.1 µM [rising, single point]

## O=C(/C=C/c1ccccc1)c1ccc(NC2=NCCCS2)cc1
  cell number change: -0.984%
[2]
  AC50: 2.31 µM [rising, single point]

## Cc1ccn(CCNC(=O)C2CCC(=O)N(Cc3ccc(Cl)cc3)C2)n1 (centres undefined)
  cell number change: -22.8%
[2]
  AC50: 7.31 µM [falling, single point]

## COc1ccc(NC(=O)Cc2nc3ccccc3[nH]2)cc1
  cell number change: 2.13%
[2]
  AC50: 3.66 µM [rising, partial curve]

## COC(=O)c1ccc2[nH]c(C(C)(C)O)c(C)c2c1
  cell number change: 9.39%

## O=C(NCc1ccco1)c1cnn2c(C(F)F)cc(-c3ccccc3)nc12
  cell number change: -19.2%
[2]
  AC50: 20.6 µM [falling, single point]

## COc1ccccc1N/N=C/c1c(CO)cnc(C)c1O
  cell number change: 90.6%
[1]
  AC50: 9.2 µM [rising, partial curve]
[2]
  AC50: 2.59 µM [rising, partial curve]

## CCC(CO)NCc1ccc2c(c1)n(C)c(=O)n2C (centres undefined)
  cell number change: -5.22%
[2]
  AC50: 0.116 µM [falling, full curve]

## C=CCn1c(SCC(=O)NC2CC2)nc2ccccc2c1=O
  cell number change: -16.3%
[2]
  AC50: 0.0058 µM [falling, full curve, poor fit]

## Cc1ccc(/C=C2\SC(=S)N(CCCC(=O)N3CCOCC3)C2=O)cc1
  cell number change: -10.5%
[2]
  AC50: 29.1 µM [falling, single point]

## O=C(Cc1cccs1)NCCN1CCOCC1
  cell number change: -40.7%
[1]
  AC50: 16.4 µM [falling, single point]
[2]
  AC50: 4.61 µM [falling, full curve]

## CCOC(=O)CC(=O)CSc1nc2ccccc2c(=O)n1-c1ccc(C(=O)NCCOC)cc1
  cell number change: 23%
[1]
  AC50: 2.06 µM [rising, full curve, poor fit]
[2]
  AC50: 2.59 µM [rising, full curve]

## Cc1ccc(C(=O)NC(=S)Nc2ccc(N3CCOCC3)cc2)cc1C
  cell number change: -14.6%
[2]
  AC50: 0.794 µM [falling, full curve, poor fit]

## CC(C)[C@H](NS(=O)(=O)c1ccc(Cl)cc1)C(=O)OCC(=O)c1c(N)n(C)c(=O)n(C)c1=O
[2]
  AC50: 18.4 µM [falling, partial curve]

## CC(=O)N1C(c2ccccc2)CC(=O)OC1c1ccc2c(c1)OCO2 (centres undefined)
  cell number change: 27.7%
[1]
  AC50: 3.66 µM [rising, full curve, poor fit]
[2]
  AC50: 6.51 µM [rising, full curve]

## O=C(CN1C(=O)NC2(CCCC2)C1=O)NCC1CCCO1 (centres undefined)
  cell number change: 15.3%

## CC(=O)N1CCN(Cc2nc3cc(NC(=O)NC4CCCCC4)ccc3n2C)CC1
  cell number change: 7.91%
[1]
  AC50: 0.58 µM [rising, single point]

## Cc1cccc(OCC(=O)Nc2nnc(S(=O)(=O)N3CCCCC3)s2)c1
  cell number change: 9.8%
[2]
  AC50: 10.3 µM [rising, partial curve]

## COc1ccccc1NS(=O)(=O)c1cccc(C(=O)NCc2ccccn2)c1
  cell number change: 44.7%
[1]
  AC50: 5.62 µM [rising, full curve]
[2]
  AC50: 11.2 µM [rising, partial curve]

## CC(C)(C)c1ccc(C2C(C(=O)c3ccco3)=C(O)C(=O)N2CC2CCCO2)cc1 (centres undefined)
  cell number change: 6.09%

## CC(=O)Nc1ccc(NC(=O)c2cccc3c2-c2ccccc2C3=O)cc1
  cell number change: 8.1%
[2]
  AC50: 0.146 µM [falling, full curve, poor fit]

## CNC(=S)N/N=C/c1cn(Cc2c(F)cccc2Cl)c2ccccc12
  cell number change: -8.71%
[2]
  AC50: 2.31 µM [rising, full curve]

## O=S(=O)(Nc1cccc(-n2cnnn2)c1)c1cccc(Cl)c1
  cell number change: 1.42%
[2]
  AC50: 23.1 µM [falling, single point]

## N#CCSc1nnc(Cc2cccs2)n1C1CCCCC1
  cell number change: -24.4%
[2]
  AC50: 0.103 µM [falling, full curve, poor fit]

## COc1ccc(-c2cc(C(=O)Nc3ccc(C(N)=O)cc3)c3ccccc3n2)cc1
  cell number change: 25.2%

## Cc1n[nH]c(=S)n1/N=C/c1cccc(OCc2ccccc2)c1
  cell number change: -13.1%

## Cc1c(Cc2ccccc2)c(=O)oc2cc(OCC(=O)NCC(O)c3ccccc3)ccc12 (centres undefined)
  cell number change: -21.9%
[2]
  AC50: 29.1 µM [falling, single point]

## OC1(C2(O)CC(c3ccccc3)ON2)CCCCC1 (centres undefined)
  cell number change: -15.6%

## COc1cc(NC(=O)CSc2nc(C3CC3)nc3ccccc23)cc(OC)c1
  cell number change: 9.57%

## COc1ccc(C2=NOC(C(=O)O)C2)cc1 (centres undefined)
  cell number change: 25.3%
[2]
  AC50: 20.6 µM [rising, single point]

## COc1ccc(S(=O)(=O)Cc2ccc(C(=O)NCCCN(C)c3ccccc3)o2)cc1
  cell number change: -18.4%
[2]
  AC50: 29.1 µM [falling, single point]

## O=C(Nc1ccccc1C(=O)O)c1ccc(NC(=O)C2CCCO2)cc1 (centres undefined)
  cell number change: 35.2%
[2]
  AC50: 29.1 µM [rising, partial curve]

## Cc1ccc(C(=O)C2=C(O)C(=O)N(Cc3cccnc3)C2c2ccc(N(C)C)cc2)o1 (centres undefined)
  cell number change: -7.69%

## COc1cc2cnc(-c3ccccc3)c(-c3cccc(C(F)(F)F)c3)c2cc1OC
[2]
  AC50: 0.82 µM [falling, single point]

## CCOC(=O)c1ccc(N=c2ssnc2Cl)cc1
  cell number change: -19%

## CC(=O)Nc1ccc2c(c1)OCCOCCOc1cc(NC(C)=O)ccc1OCCOCCOCCO2
  cell number change: -16%
[2]
  AC50: 4.11 µM [rising, partial curve]

## CN(C)C(CN=C1NS(=O)(=O)c2ccccc21)c1ccco1 (centres undefined)
  cell number change: 6.67%
[2]
  AC50: 0.461 µM [rising, full curve, poor fit]

## Cc1ccc(C2(C)NC(=O)N(CC(=O)NC3CCCCC3)C2=O)cc1 (centres undefined)
  cell number change: -19.4%
[1]
  AC50: 1.84 µM [falling, partial curve, poor fit]
[2]
  AC50: 1.46 µM [falling, partial curve]

## CCOC(=O)c1sc(-c2ccc(OC)cc2)cc1N
  cell number change: -10.9%

## COc1ccc(N2CCN(C(=O)Cc3nn(C)c(=O)c4ccccc34)CC2)cc1
[1]
  AC50: 0.411 µM [rising, single point]

## COc1ccccc1C(=O)Oc1ccc(C(C)C)cc1
  cell number change: -5.95%
[2]
  AC50: 0.0731 µM [rising, full curve, poor fit]

## N#CCSc1nnc(COc2cccc3ccccc23)n1-c1cccc(Cl)c1
  cell number change: -37.7%
[1]
  AC50: 10.3 µM [falling, partial curve, poor fit]
[2]
  AC50: 29.1 µM [falling, single point]

## COC(=O)C1=C(C)NC(=O)CC1c1cccc(OC)c1OC (centres undefined)
  cell number change: 0.723%
[2]
  AC50: 0.00461 µM [rising, full curve, poor fit]

## CCN(C(=O)CSc1nnc(C2CC2)n1-c1ccccc1)C1CCS(=O)(=O)C1 (centres undefined)
  cell number change: -40.3%
[1]
  AC50: 29.1 µM [falling, single point]
[2]
  AC50: 29.1 µM [falling, single point]

## O=S(=O)(c1ccc2ccccc2c1)n1cccn1
  cell number change: 21.5%
[2]
  AC50: 23.1 µM [falling, single point]

## COc1ccc2[nH]c3ccc(OC)cc3c2c1
  cell number change: -31%
[1]
  AC50: 18.4 µM [falling, single point]

## Cc1ccc(S(=O)(=O)Nn2c(C)nnc2-n2nc(C)cc2C)cc1
  cell number change: -19.3%
[2]
  AC50: 0.0517 µM [falling, full curve, poor fit]

## O=C(NCCOC(=O)c1ccccc1)c1ccc([N+](=O)[O-])cc1
  cell number change: -19.9%
[2]
  AC50: 0.58 µM [rising, single point]

## CCN(CC(=O)Nc1ccc2c(c1)OCCO2)C(=O)C(C)Oc1ccc(Cl)cc1 (centres undefined)
  cell number change: 12%

## CCCCC(=O)NC(=S)Nc1ccc(NC(=O)C(C)C)c(OC)c1
  cell number change: -27.1%

## O=c1cc(-c2ccccc2)c2cc3c(cc2[nH]1)OCCO3
  cell number change: 23.7%

## O=C(/C=C/c1cccc([N+](=O)[O-])c1)NC(=S)Nc1cccc(NC(=O)c2ccccc2Cl)c1
  cell number change: -59.2%
[1]
  AC50: 32.6 µM [falling, single point]

## Cc1ccc(-c2noc(C3CCCCC3)n2)cc1
  cell number change: 37.4%
[1]
  AC50: 23.1 µM [rising, single point]

## CCN(CC)CCN1C(=O)C(O)=C(C(=O)c2ccco2)C1c1ccccn1 (centres undefined)
  cell number change: -52.3%
[1]
  AC50: 29.1 µM [falling, single point]
[2]
  AC50: 5.17 µM [falling, full curve]

## COc1ccc(/C=C2\SC(=S)N(CCCC(=O)N3CCOCC3)C2=O)cc1OC
  cell number change: 9.46%
[2]
  AC50: 23.1 µM [rising, partial curve, poor fit]

## Cc1cc(=O)[nH]c(N/N=C/c2cc(C)n(-c3ccccc3)c2C)n1
  cell number change: 24.4%
[2]
  AC50: 0.651 µM [falling, full curve, poor fit]

## COc1ccc(Cl)cc1C(=O)OCC(=O)NC1CCCC(C)C1C (centres undefined)
  cell number change: 56.9%
[1]
  AC50: 23.1 µM [rising, single point]

## O=c1c2ccccc2nc(SCc2ccncc2)n1CC1CCCO1 (centres undefined)
  cell number change: 15.9%
[2]
  AC50: 1.64 µM [rising, single point]

## CC(NC(=O)c1ccccc1)c1nc2ccccc2n1Cc1ccc(C#N)cc1 (centres undefined)
  cell number change: -19.7%
[2]
  AC50: 0.13 µM [falling, full curve, poor fit]

## O=C(NCCO)c1ccc(-c2nnc(N3CCOCC3)c3ccccc23)cc1
  cell number change: 12.3%
[1]
  AC50: 0.082 µM [falling, full curve, poor fit]
[2]
  AC50: 6.51 µM [falling, single point]
